From ChEMBL document CHEMBL3988442, “University of Dundee, Small-Polar-MMV Screening Library” (2021).

Chains of the proteins cited; added tags and fusions are not shown. Residues count along the entry.
UniProt I6X8D2, whole entry: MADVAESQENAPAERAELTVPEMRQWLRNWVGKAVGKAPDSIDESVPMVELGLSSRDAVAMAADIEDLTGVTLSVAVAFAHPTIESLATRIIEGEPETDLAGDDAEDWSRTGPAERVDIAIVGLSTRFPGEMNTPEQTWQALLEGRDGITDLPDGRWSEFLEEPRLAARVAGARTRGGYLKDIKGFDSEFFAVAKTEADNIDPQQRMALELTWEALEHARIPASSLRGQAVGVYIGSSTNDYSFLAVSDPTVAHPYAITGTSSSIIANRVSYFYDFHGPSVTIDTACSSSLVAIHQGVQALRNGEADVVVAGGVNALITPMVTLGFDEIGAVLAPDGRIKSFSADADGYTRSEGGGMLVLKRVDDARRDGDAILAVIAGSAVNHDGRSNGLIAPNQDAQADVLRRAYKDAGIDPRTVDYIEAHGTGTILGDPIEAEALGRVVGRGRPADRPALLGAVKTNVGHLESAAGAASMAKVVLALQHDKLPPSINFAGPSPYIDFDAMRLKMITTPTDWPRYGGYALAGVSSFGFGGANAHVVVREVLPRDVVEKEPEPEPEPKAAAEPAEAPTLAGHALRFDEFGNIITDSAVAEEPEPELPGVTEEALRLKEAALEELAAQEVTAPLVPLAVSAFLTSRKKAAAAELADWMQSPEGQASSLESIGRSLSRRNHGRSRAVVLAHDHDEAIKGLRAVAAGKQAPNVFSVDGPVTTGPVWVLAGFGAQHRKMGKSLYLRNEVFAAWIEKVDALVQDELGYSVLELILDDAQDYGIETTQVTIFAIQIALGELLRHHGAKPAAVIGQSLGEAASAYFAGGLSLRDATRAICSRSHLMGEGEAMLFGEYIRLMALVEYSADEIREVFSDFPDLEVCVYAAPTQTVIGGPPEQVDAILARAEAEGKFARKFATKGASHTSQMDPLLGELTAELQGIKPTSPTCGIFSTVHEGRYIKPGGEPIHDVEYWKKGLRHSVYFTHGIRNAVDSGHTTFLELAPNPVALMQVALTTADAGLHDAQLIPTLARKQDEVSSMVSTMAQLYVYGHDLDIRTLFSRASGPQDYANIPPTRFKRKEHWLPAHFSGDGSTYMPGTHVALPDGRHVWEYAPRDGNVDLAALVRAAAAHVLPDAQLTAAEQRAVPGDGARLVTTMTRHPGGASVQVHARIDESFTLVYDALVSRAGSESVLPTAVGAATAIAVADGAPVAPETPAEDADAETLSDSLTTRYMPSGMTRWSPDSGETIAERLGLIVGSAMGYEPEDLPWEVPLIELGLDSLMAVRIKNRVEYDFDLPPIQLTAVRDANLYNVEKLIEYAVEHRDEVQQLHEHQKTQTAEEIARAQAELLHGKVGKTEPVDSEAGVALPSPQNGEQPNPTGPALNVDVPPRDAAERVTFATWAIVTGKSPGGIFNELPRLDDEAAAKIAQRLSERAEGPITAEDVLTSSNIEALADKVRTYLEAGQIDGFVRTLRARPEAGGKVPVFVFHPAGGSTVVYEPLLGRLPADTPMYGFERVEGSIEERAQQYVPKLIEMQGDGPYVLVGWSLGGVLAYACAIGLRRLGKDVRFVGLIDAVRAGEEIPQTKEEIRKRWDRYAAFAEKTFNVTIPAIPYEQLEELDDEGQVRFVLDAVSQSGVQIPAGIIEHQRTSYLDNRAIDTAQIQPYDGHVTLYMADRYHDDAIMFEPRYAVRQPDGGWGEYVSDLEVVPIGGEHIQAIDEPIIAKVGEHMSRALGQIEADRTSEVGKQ
UniProt A4I591, 1-473: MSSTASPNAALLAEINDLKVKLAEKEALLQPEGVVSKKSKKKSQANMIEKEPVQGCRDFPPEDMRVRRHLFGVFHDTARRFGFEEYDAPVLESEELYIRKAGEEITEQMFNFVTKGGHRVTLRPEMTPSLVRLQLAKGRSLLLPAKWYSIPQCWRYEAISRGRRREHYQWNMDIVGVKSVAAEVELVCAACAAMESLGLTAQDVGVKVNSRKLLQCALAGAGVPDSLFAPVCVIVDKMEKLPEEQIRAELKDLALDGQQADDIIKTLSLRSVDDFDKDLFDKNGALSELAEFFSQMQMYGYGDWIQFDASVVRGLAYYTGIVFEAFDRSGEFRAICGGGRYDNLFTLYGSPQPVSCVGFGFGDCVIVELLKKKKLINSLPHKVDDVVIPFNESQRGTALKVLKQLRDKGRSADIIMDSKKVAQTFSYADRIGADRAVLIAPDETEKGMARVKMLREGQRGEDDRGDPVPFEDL
UniProt P9WPC5, whole entry: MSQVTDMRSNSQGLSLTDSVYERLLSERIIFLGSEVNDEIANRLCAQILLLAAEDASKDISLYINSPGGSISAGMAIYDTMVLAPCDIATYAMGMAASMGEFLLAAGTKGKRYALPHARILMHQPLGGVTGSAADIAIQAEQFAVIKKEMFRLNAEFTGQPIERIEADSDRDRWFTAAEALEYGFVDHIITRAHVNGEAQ
UniProt P9WPC3, whole entry partner: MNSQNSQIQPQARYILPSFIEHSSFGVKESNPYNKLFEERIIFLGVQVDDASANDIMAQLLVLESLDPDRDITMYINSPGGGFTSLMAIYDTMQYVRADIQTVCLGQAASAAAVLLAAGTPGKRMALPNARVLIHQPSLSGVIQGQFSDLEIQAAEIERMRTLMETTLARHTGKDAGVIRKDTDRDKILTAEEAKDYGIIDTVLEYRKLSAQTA
UniProt P9WNZ1, whole entry: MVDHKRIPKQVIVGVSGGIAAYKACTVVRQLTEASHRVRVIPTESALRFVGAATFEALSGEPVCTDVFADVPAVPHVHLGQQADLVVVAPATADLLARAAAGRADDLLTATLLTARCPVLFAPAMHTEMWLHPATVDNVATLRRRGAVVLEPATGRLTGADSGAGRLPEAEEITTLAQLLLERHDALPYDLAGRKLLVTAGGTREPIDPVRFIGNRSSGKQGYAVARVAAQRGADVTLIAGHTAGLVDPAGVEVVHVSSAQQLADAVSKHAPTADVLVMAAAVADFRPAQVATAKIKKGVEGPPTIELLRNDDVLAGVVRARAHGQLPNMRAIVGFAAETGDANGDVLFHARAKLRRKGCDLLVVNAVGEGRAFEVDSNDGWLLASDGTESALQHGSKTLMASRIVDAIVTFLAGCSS

A: 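Polyketide synthase Pks13, Mycobacterium tuberculosis (UniProt I6X8D2). Enzyme assay of the thioesterase domain of polyketide synthase 13; the read-out is not stated. Compounds at 30 µM. Higher reads as stronger inhibition (inferred from which compounds were picked for retests). Size under these conditions: about 67,000 compounds, about 300 of them at 50% or above in at least one test.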
B: 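Histidine-tRNA ligase, Leishmania infantum (UniProt A4I591). Enzyme assay of histidyl-tRNA synthetase; the read-out is not stated. Concentration: 30 µM. The record gives no direction; compounds that gave an IC50 in retests scored well above the rest, so higher reads as stronger inhibition. The assay is labelled LdHisRS but filed under L. infantum. Size under these conditions: about 69,000 compounds, about 410 of them at 50% or above in at least one test.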
C: 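Cell assay of Leishmania donovani living inside macrophages; the read-out is not stated. Concentration: 30 µM. Higher reads as stronger inhibition (inferred: compounds with an IC50 in retests scored well above the rest). Of about 69,000 compounds tested this way, about 1,000 (1.5%) reached 50% or more in at least one test.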
D: 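Protease assay of ClpP1P2, read by the AMC dye that it sets free. Target: ClpP1P2, Mycobacterium tuberculosis (UniProt P9WPC5 and UniProt P9WPC3). Concentration: 50 µM. Direction is inferred from only a few compounds that gave an IC50; most scored high, so higher reads as stronger inhibition. Most other retested compounds had strongly negative values. Of about 69,000 compounds tested this way, about 10 (0.015%) reached 50% or more in at least one test.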
E: 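Assay of Toxoplasma gondii numbers, read through their beta-galactosidase reporter with a colour substrate. Tested at 10 µM. The record gives no direction; the compounds picked for IC50 retests had high values, so higher reads as fewer parasites. About 67,000 compounds were tested under these conditions; 0.38% (about 260) showed 50% or more at least once.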
F: 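Coenzyme A biosynthesis protein CoaBC, Mycobacterium tuberculosis (UniProt P9WNZ1). Enzyme assay of CoaBC with a phosphate dye (Biomol Green) read at 650 nm. Compounds at 30 µM. Direction is inferred from only a few compounds that gave an IC50; most scored high, so higher reads as stronger inhibition. Most strong results did not repeat in a second test. Of about 67,000 compounds tested this way, about 40 (0.06%) reached 50% or more in at least one test.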

Results are given as percent effect.
The controls that fix the scale are not given in the record; negative values are as filed.
The compounds are a random part of those screened.
Two or more numbers in one place are separate tests of the same structure; such repeats can differ widely.
A dash means the value is not listed here; it may have been measured.

structure,A,B,C,D,E,F
CC(C)NC(=O)C1CCC2(CCN(Cc3cnn(C)c3)CC2)CO1 (stereo not shown),-13.92%,13.16%,-,4.852%,-,11.2%
Cc1cc(NCCC(=O)NC2CCCCC2)nc(-c2ccncc2)n1,-19.71%,15.93%,-84.76%,1.566%,14.63%,2.87%
Cc1cccc2cc(CO)c(N3Cc4cnc(C(C)(C)C)nc4C3)nc12,7.261%,12.24%,19.25%,14.46%,17.43%,0.2296%
COCC1c2c(cnn2CC2CC2)CCN1Cc1ccsc1 (stereo not shown),-33.22%,13.89%,-,-14.07%,-,-35.64%
COCCNC(=O)C[C@@H]1COC[C@H]2CN(C(=O)c3cnccn3)C[C@@H]12,-12.76%,19.05%,-,-12.28%,-,11.4%
CC(C)c1nn(C)c(Cl)c1CNCCn1cccn1,-3.513%,11.61%,-3.164%,15.91%,8.488%,4.545%
COCC(=O)NCc1cc(=O)n2c(n1)CN(Cc1ccncc1)CCC2,-13.57%,11.82%,55.54%,-6.913%,-21.49%,4.691%
COCCN1CCc2cc(C(=O)NC(C)C)c(NCC(C)C)nc2CC1,14.43%,17.11%,-,-78.49%,-,-23.83%
CCc1ccc(CN2CCC3(CC(C(=O)NCC(C)C)=NO3)C2)o1 (stereo not shown),1.477%,11.32%,-0.4303%,-12.7%,5.902%,1.22%
COCCn1c(-c2cccc(OC)c2)cnc1NC(=O)NCCC(C)C,-37.08%,26.32%,28.95% & -46.78%,-20.39%,-5.241%,2.278%
CCn1cnnc1C1CCN(C(=O)Cc2ccc(OC)c(F)c2)CC1,-8.87%,12.9%,35.71%,-0.4337%,3.583%,-4.156%
Cc1ccoc1C(=O)N1CCO[C@H]2[C@H](OCC3CCOCC3)CC[C@@H]21,-21.55%,7.547%,-,-2.931%,-,3.426%
Cn1ccnc1C(=O)N1CCCC(Cn2cc(CO)nn2)C1 (stereo not shown),-3.322%,9.677%,20.22%,-8.246%,3.402%,-0.3699%
Cc1cc(CN2CCOC(CN(C)C)C2)no1 (stereo not shown),-9.333%,3.077%,-2.32%,0.6831%,1.939%,8.094%
[H][C@]12CCN(C(=O)c3cc[nH]n3)CC[C@@]1([H])S(=O)(=O)N(Cc1cccnc1)C2,-,-,2.609% & 19.14%,-,-1.953%,-
N#Cc1cccc(N2CCCC3(CNCCO3)C2)n1.O=C(O)C(F)(F)F.O=C(O)C(F)(F)F (stereo not shown),-,-,17.12%,-,3.29%,-
CN1CC=C(c2noc(CCC(=O)N3CCc4ccccc43)n2)CC1,-4.011%,21.05%,-0.7556%,-2.102%,3.108%,0%
CC(C(=O)NCCN1CCN(C)CC1)n1cncn1 (stereo not shown),-12.82%,21.93%,19.13%,17.41%,0.6864%,0.3911%
O=C(O)C(F)(F)F.O=C(O)C(F)(F)F.[H][C@@]12CN(Cc3ccc(C)s3)CCC[C@]1(C(=O)O)CN(CCOC)C2,-,-,17.39%,-,-0.4572%,-
Cc1cccc2c1nc1n2[C@@H](CNC(=O)c2cnccn2)COC1,12.82%,25.68%,9.365%,-10.19%,-0.2321%,14.35%
N#Cc1c(-c2ccccc2)csc1N,-29.11%,-2.632%,7.164%,-6.225%,4.336%,2.02%
Cc1cc(C(F)(F)F)nc(C2CCCN2S(C)(=O)=O)n1 (stereo not shown),2.377%,10.07%,9.775%,-1.185%,3.359%,5.502%
O=C(Cc1ccc2c(c1)OCCO2)N1CCCC(n2cccn2)C1 (stereo not shown),-4.98%,2.667%,2.042%,-5.485%,-4.548%,6.923%
COC1CN(C(=O)C2CC2)CCC(=O)N(C)c2ccccc21 (stereo not shown),1.862%,12.24%,3.838%,10.94%,18.89%,1.695%
Cc1noc(C2CCN(C(=O)c3cccs3)CC2)n1,-6.04%,15.93%,-19.86%,4.96%,11.86%,-0.8037%
CCc1ncc(C(=O)N2C[C@@H](C)O[C@@H](C)C2)cn1,-,26.51%,24.35%,-12.17%,-8.038%,1.456%
COCC(=O)N1CCCC(C(=O)NCc2cc(CC(C)C)on2)C1 (stereo not shown),-4.038%,9.677%,0.1985%,16.1%,-56.58%,3.023%
O=C(O)c1ccccc1-c1ccc(CNC(=O)C2CCOCC2)cc1,-18.04%,10.14%,18.24%,20.37%,-2.365%,-3.679%
Cc1noc(C)c1C(=O)N1CCSc2ccc(Cl)cc21,-7.093%,-9.524%,36.17%,20.36%,-3.917%,-0.4854%
COc1cccc(-n2cc(-c3ccnc(NC(CO)C(C)C)n3)cn2)c1 (stereo not shown),-0.3143%,-5%,-12.23%,-5.427%,9.735%,0.4878%
c1ccc(CN2CCc3ncnc(C4CCOC4)c3CC2)nc1 (stereo not shown),17.97%,-5.556%,-,-12.87%,-,-1.613%
CC(C)Nc1ncnc2c1CCN(C(=O)NCc1cccnc1)CC2.O=C(O)C(F)(F)F,-,-,15.5%,-,1.296%,-
CN1CCN(Cc2ccncc2)C(=O)C12CCN(Cc1ccsc1)CC2,-11.89%,13.76%,-,1.13%,-,3.294%
CCc1n[nH]c(C2CN(C(=O)c3ccc4c(c3)COC4)CCO2)n1 (stereo not shown),-23.82%,11.5%,-33.32%,-33.91%,6.31%,0%
CC1CN(C(=O)c2ccc(=O)n(C)c2)c2ccccc2NC1=O (stereo not shown),-13.82%,15.04%,13.35%,3.255%,9.341%,1.636%
Cc1cc(C)cc(CNCCS(=O)(=O)N2CCOCC2)c1,-9.474%,3.226%,14.41%,-2.023%,-22.34%,-1.467%
CCOc1ccc(Cl)cc1C(C(=O)O)N1CCC(CO)CC1 (stereo not shown),-6.07%,8.197%,11.27%,-21.89%,-23.4%,1.279%
O=C(O)C(F)(F)F.O=S(=O)(c1cccs1)N1CC[C@@H](O)[C@@H]1Cc1ccncc1,-,-,-6.096%,-,6.652%,-
COc1ccc(F)cc1C(=O)Nc1nnc(C)s1,-10.3%,13.11%,1.212%,10.66%,4.58%,-2.575%
CC(=O)NCc1ccc(C(=O)N2CCCCC2Cn2cccn2)o1 (stereo not shown),-33.63%,21.54%,-0.4523%,18.89%,0.4308%,10.12%
CC(C)Oc1cccc(CNC(Cc2ccsc2)c2nccs2)c1 (stereo not shown),-,9.929%,-,-48.69%,-,0.6993%
CCCC(=O)Nc1cnn(CC(=O)Nc2ccc(SC)cc2)c1,-0.7125%,15.93%,11.1%,-20.32%,-15%,3.396%
[H][C@@]12CS(=O)(=O)C[C@]1([H])N(C(=O)c1ccc3oc(C)cc3c1)CCN2CCO,-,-,-10.99%,-,4.661%,-